Test results reported in patent US11878972B2, “Treatment of neurological disorders” (TORQUR AG, priority 2016, dated 2024).
For part of these data: For at least one compound, name, drawing or mass did not settle the structure. Some entries repeat one wording, which the source may state once for all of them. Some entries share one result that the patent states for a list of compounds.

What was measured:
[1] = tested on: mTOR signaling cascade (phosphorylation of S6rP and AKT); test: Target engagement in brain and thigh muscle (western blot); type: in vivo, mouse; details: B57BL/6J mice, single oral 50 mg/kg; altered from 30 min
Method: Tissue was snap frozen in liquid nitrogen and stored at −80° C. Tissue was thawed and lysed in RIPA buffer 1 ml/half brain. Complete protease inhibitor and PhosStop phosphatase inhibitor (Roche) was added to the buffer before lysis. Tissue was homogenized manually and centrifuged twice at 16000 rpm, 4° C. for 20 minutes. Supernatant was frozen with 10% glycerol at −80° C. Protein concentration was performed using Bradford reagent. For western blot analysis of AKT and S6rP phosphorylation, 30 μg of protein was denatured with β-mercaptoethanol at 95° C. and separated on SDS page gels at 100 V. Then proteins were transferred to a nitrocellulose membrane (Bio-Rad, USA) at 80 V. Non-specific binding was blocked with 5% bovine serum albumin (BSA) (Sigma-Aldrich, USA). Membranes were incubated over night with primary antibody dissolved in TBST, 5% BSA at 4° C. and with secondary antibody coupled to horseradish peroxidase (GE Healthcare, UK) for 1 hour at RT and washed. Imaging of protein bands was performed using Luminol (Biozym, Hamburg, Germany. On a Li-Cor Odyssey FC reader. Quantification of S6-phosphorylation was determined with the same imaging system.
The following antibodies were used: • AKT, P-AKT (S473), S6rP, P-S6rP(S235/236): Cell Signaling (UK) • β-actin: Sigma Aldrich, USA

[2] = tested on: female NMRI mice, nonepileptic (sham-SE) and epileptic (pilo-SE); test: Maximal electroshock seizure threshold test (MEST); type: in vivo, mouse
Method: Animals were kept under the following conditions: Housing: Animals were housed in groups of max. 8 mice under controlled conditions (temperature: 22±1° C.; humidity: 50% 60%/), under a 12-h light-dark cycle (lights on at 6:00 a.m.). Feeding: Standard laboratory chow (Altromin 1324 standard diet, Altromin Spezialfutter GmbH, Lage, Germany) was provided ad libitum. Drinking water: Tap water was provided ad libitum.
The MEST determines a population seizure threshold in groups of ˜20 animals and not the threshold for an individual animal. In the present study, the MEST was determined by a staircase procedure as previously described. A stimulator (BMT Medizintechnik, Berlin, Germany) that delivered a constant current (adjustable from 1-200 mA regardless of the impedance of the animal) with sinusoidal pulses (50/sec) for 0.2 sec was used.
Current administration was performed via bilateral transcorneal stimulation (using copper electrodes). Before transcorneal stimulation, a drop of tetracaine solution (2%) was administered to the eyes of the mouse for local anesthesia. Two minutes later, the mouse was restrained by hand to press the copper electrodes on both corneas while the stimulus was applied by stepping on a foot pedal switch connected with the stimulator. […]
Statistical analysis were calculated using Student's t-test. […]

[3] = tested on: LC3-II in STHdh^Q7/Q7 and STHdh^Q111/Q111 cells; test: Induction of autophagy in STHdh cells (LC3-II, western blot); type: cell-based, mouse; details: striatal cells, 4 hours, presence and absence of Bafilomycin A
Method: In order to test whether Cpd. 3 and Cpd. 8 inhibit mTOR signaling and induce autophagy in neuronal cell models of HD, treatment of STHdh^Q111/Q111 and STHdh^Q7/Q7 cells was employed. […] Cells were seeded in 10 cm dishes. When cells were about 80% confluent, cells were differentiated and treated with compounds at the same time. Cells were treated with Cpd. 3 (200 nM, 400 nM, 1230 nM), Cpd. […] At the end of incubation time cells were washed with cold PBS buffer and lysed with 200 μl of RIPA buffer supplemented with 4% Complete protease inhibitor (Roche, Switzerland) and 10% PhosStop (Roche, Switzerland). After 30 min of incubation on ice, lysates were vortexed, centrifuged (20 min, 4° C., 16000 rpm) and supernatants were collected. Protein concentration was determined as described above. 30 μg of protein per sample was analyzed by western blot as described above using the following primary antibodies:
In order to detect levels of LC3-II, an autophagy marker in autophagosomes, cell treatment was performed in the presence and absence of Bafilomycin A, an inhibitor of autophagosome degradation. Thus compounds lead to accumulation of LC3-II levels when autophagy is induced. Cpd. […] For Cpd. […] Cpd.

[4] = tested on: 51Q-HTT-Exon1-eGFP transfected HEK cells; test: Filter trap assay of mutHTT aggregates; type: cell-based, human
Method: HEK cells were transiently transfected with pcDNA3.1/V5-His vector from Clontech (Mountain View, USA) containing the expression sequence for Exon1 of HTT with a 19Q (no aggregation) or 51Q extension and enhanced green fluorescence protein (eGFP) tag using Attractene Transfection Reagent (Qiagen, Netherlands). 1×10^6 cells were seeded in a 6 well plate. On the next day 2 μg DNA were mixed with 95.5 μl transfection media and 4.5 μl transfection reagent. After an incubation time of 15 min the mixture was added to the cells. After 72 hours cells were harvested or fixed for analysis.
HEK cells transfected with 19Q- or 51Q-HTT-Exon1-eGFP were treated with DMSO control. 51Q-HTT-Exon I-eGFP HEK cells form aggregates. These cells were treated with Cpd. 3 (400, 1230 nM), Cpd. […] After 30 min incubation on ice, cells were homogenized (Dounce Homogenizer, Thermo Fisher, USA). 50 μg of protein solution in PBS was supplemented with 2% SDS (Roth, Germany). Samples were sucked through a nitrocellulose membrane (0.45 μm) and washed twice with PBS buffer.

[5] = tested on: autophagic markers LC3II and p62; test: Induction of autophagy in brain of mice (western blot LC3, p62); type: in vivo, mouse; details: single oral administration 50 mg/kg
Method: In order to investigate whether mTOR inhibition by Cpd. 3 and Cpd. 8 induces autophagy—the essential mechanism for huntingtin aggregate clearance-in the brain, BALB/c nude mice were treated with Cpd. 3 and Cpd. 8 as described in sample 5.

[6] = tested on: R6/2 mice (mutHTT aggregates in the striatum); test: Immunohistochemistry of mutHTT aggregates in striata of long-term treated R6/2 mice; type: in vivo, mouse; details: p.o. 11.5 weeks, Cpd. 3 65 mg/kg, Cpd. 8 16.25 mg/kg, versus vehicle controls
Text: An in vivo model of Huntington's disease was used to evaluate the efficacy of Cpd. 3 and cpd. 8 in reducing mutHTT aggregate formation in the striatum. R6/2 mice are a B6CBA-Tg(HDexon1)62Gbp/3J Huntington's disease mouse model expressing exon 1 of the human huntingtin gene with an extension of 160 f 5 CAG repeats. Mice have a severe phenotype that develops between 4 and 12 weeks.
Treatment groups were established from genotype and measurement of weight, rotarod performance and litter. They were distributed equally over the four groups, each group contained 12 animals. R6/2 mice and their wt counterparts were dosed in the following treatment groups: 1. Wt, vehicle (20% SBECD in water, pH 3); 2. R6/2 vehicle (20% SBECD in water, pH 3); 3. R6/2 Cpd. 3 (65 mg/kg); 4. R6/2 Cpd.8 (16.25 mg/kg). Per oral dosing was performed for 6 days with a following drug holiday of 1 day for a total of 11.5 weeks.
To detect mutHTT aggregates, immunostaining of striata was performed. […]
Images were acquired using a Zeiss Axioplan microscope (Plan-NEOFLUAR×40/0.75 objective, AxioCam MRc) and Axiovision 4.8 software (Carl Zeiss Microscopy GmbH, Jena, Germany). Per animal three subsequent sections of the striatum were analyzed, 4 animals were analysed The EM48 positive structures were analyzed with the ImageJ built in particle analysis, with a fixed threshold for all pictures (ImageJ 1.47v; NIH, Bethesda, MD, USA). […]

Tsc1GFAP knockout mice = test: Electrographic seizures in Tsc1 GFAP conditional knockout mice

## Nc1cc(C(F)F)c(-c2nc(N3C4CCC3COC4)nc(N3C4CCC3COC4)n2)cn1 [Compound 3, 5-(4-(3-oxa-8-azabicyclo[3.2.1]octan-8-yl)-6-(3-oxa-8-azabicyclo[3.2.1]octan-8-yl)-1,3,5-triazin-2-yl)-4-(difluoromethyl)pyridin-2-amine]
[1]
  duration of altered mTOR signaling after administration: at least 8 hours

## C[C@H]1COCCN1c1nc(-c2cnc(N)cc2C(F)F)nc(N2CCOCC2)n1 [Compound 8, (S)-4-(difluoromethyl)-5-(4-(3-methylmorpholino)-6-morpholino-1,3,5-triazin-2-yl)pyridin-2-amine]
[2]; epileptic mice, any dose or pretreatment time tested
  anticonvulsant effect in epileptic mice: did not exert an anticonvulsant effect
[2]; nonepileptic mice
  anticonvulsant effect in nonepileptic mice: pronounced dose-dependent anticonvulsant effect
[3]
  autophagy (LC3-II levels): induced autophagy in striatal cells
[4]; 130 nM of Cpd. 8, 8 hours
  mutHTT aggregate reduction (filter trap): not sufficient to induce significant aggregate reduction
[4]; 8 hours, Cpd. 3 400, 1230 nM, Cpd. 8 130, 1230 nM, INK128 100 nM, Rapamycin 400 nM
  mutHTT aggregates (filter trap): significant reduction of cytotoxic mutHTT aggregates
[5]
  autophagic marker LC3II in brain: time-dependent increase
  autophagic marker p62 in brain: decrease
[6]
  decrease of the size (area) of mutHTT aggregates in striata: slightly (although not significantly) reduced
  number of mutHTT aggregates counted in striata: not changed
Tsc1GFAP knockout mice; TSC1 GFAP mice, during treatment
  Body weight: higher towards the end of the study
Tsc1GFAP knockout mice; Tsc1 GFAP mice, chronic treatment
  effect on spontaneous electrographic seizures: strongly reduce spontaneous seizures
